For this test, the target named is T1, FLAG-tagged PR55γ (U2-OS) (human) (UniProt Q9Y2T4).
T1 sequence: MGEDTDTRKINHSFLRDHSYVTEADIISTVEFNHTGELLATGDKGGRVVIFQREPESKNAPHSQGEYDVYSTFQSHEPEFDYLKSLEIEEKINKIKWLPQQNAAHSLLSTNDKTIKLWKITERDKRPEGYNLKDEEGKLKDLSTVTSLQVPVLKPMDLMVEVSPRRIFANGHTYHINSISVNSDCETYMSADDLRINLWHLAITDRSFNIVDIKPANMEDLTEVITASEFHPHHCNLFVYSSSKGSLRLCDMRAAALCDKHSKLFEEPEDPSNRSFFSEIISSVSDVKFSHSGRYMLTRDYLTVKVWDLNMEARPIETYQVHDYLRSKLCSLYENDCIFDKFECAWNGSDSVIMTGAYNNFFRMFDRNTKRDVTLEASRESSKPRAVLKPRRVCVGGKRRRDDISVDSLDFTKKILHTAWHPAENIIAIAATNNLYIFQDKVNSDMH
Briefly: co-IP; U2-OS cells, transfected, lysed 48 h later in ELB (0.25 M NaCl, 0.1% NP-40, 50 mM HEPES pH 7.3); lysate 2 h with 2 ug antibody to the bait on protein A or G sepharose, or anti-FLAG M2 affinity gel; three washes in ELB; immunoblot; no UV. In general terms: In western blotting, separated proteins are transferred to a membrane and probed.

Protein sequences, listed by entry. Tags and fused reporters are not part of them.
UniProt P06241: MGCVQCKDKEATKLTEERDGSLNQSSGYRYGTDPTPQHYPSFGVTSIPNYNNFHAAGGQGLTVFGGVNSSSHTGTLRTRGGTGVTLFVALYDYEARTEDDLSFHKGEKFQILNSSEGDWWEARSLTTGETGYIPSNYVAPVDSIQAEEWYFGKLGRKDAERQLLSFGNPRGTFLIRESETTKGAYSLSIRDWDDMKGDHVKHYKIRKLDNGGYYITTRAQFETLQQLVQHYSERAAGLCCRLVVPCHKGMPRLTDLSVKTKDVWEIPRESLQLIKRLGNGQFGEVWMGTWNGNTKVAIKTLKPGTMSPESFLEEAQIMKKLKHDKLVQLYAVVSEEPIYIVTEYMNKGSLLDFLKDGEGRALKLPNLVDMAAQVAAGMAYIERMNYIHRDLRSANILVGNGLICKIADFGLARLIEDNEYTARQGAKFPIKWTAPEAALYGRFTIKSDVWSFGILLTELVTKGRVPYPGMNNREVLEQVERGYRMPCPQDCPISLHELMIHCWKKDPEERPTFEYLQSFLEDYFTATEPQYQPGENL

Results are given in words; binding and its absence hold for the method and conditions named. In cells and extracts the contact can be indirect. Where a sequence is shown, tags or fusion partners need not be part of it.

In the case of FYN (from UniProt P06241 1-537), the binding entry is on record as “no binding”.

For the origin of these results see article PMC2134945.
